Results are given in words; binding and its absence hold for the method and conditions named. Binding seen in cells or lysates may run through a third protein. Some binding calls cover weakened binding; strength is not graded here.
Target: T1, TatA (E. coli) (UniProt P69428)
T1 sequence: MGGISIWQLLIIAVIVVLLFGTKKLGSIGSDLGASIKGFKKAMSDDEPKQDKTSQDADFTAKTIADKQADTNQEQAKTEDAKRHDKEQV
Assay: cross-linking; inverted inner membrane vesicles (TatABC, TatEBC, TatEABC) diluted in INV-buffer, DCCD (1 µl of 50 mM in 100 µl) added, 20 min on ice, TCA precipitation, 9% Tricine SDS-PAGE, Western blot with antibodies against TatA, TatB, TatC, TatE

- binding: binds
B1: TatE (protein, UniProt P0A843 1-67)
chain: MGEISITKLLVVAALVVLLFGTKKLRTLGGDLGAAIKGFKKAMNDDDAAAKKGADVDLQAEKLSHKE
